{"source": "ChEMBL document CHEMBL4316593", "about": "(Eur J Med Chem, 2019)", "format_in_all_cases": "cell-based", "settings_in_all_cases": "U-87MG ATCC", "key": {"[1]": {"assay": "Inhibition of RTK/PI3K/AKT/mTOR signaling in human U87 cells assessed as down regulation of MYO9B gene expression at cytotoxic IC50 measured after 48 hrs relative to control"}, "[2]": {"assay": "Inhibition of RTK/PI3K/AKT/mTOR signaling in human U87 cells assessed as down regulation of FAM177A1 gene expression at cytotoxic IC50 measured after 48 hrs relative to control"}, "[3]": {"assay": "Inhibition of RTK/PI3K/AKT/mTOR signaling in human U87 cells assessed as down regulation of HBS1L gene expression at cytotoxic IC50 measured after 48 hrs relative to control"}, "[4]": {"assay": "Inhibition of RTK/PI3K/AKT/mTOR signaling in human U87 cells assessed as up regulation of cyclin dependent kinase 4 gene expression at cytotoxic IC50 measured after 48 hrs relative to control"}, "[5]": {"assay": "Inhibition of RTK/PI3K/AKT/mTOR signaling in human U87 cells assessed as up regulation of NDUFS2 gene expression at cytotoxic IC50 measured after 48 hrs relative to control"}, "[6]": {"assay": "Inhibition of RTK/PI3K/AKT/mTOR signaling in human U87 cells assessed as up regulation of neuralized E3 ubiquitin protein ligase 1B gene expression at cytotoxic IC50 measured after 48 hrs relative to control"}, "[7]": {"assay": "Inhibition of RTK/PI3K/AKT/mTOR signaling in human U87 cells assessed as down regulation of TUBB4B gene expression at cytotoxic IC50 measured after 48 hrs relative to control"}, "[8]": {"assay": "Inhibition of RTK/PI3K/AKT/mTOR signaling in human U87 cells assessed as down regulation of CHPF gene expression at cytotoxic IC50 measured after 48 hrs relative to control"}, "[9]": {"assay": "Inhibition of RTK/PI3K/AKT/mTOR signaling in human U87 cells assessed as up regulation of interferon induced transmembrane protein 3 gene expression at cytotoxic IC50 measured after 48 hrs relative to control"}, "[10]": {"assay": "Inhibition of RTK/PI3K/AKT/mTOR signaling in human U87 cells assessed as up regulation of BBX gene expression at cytotoxic IC50 measured after 48 hrs relative to control"}, "[11]": {"assay": "Inhibition of RTK/PI3K/AKT/mTOR signaling in human U87 cells assessed as down regulation of RNF219 gene expression at cytotoxic IC50 measured after 48 hrs relative to control"}, "[12]": {"assay": "Inhibition of RTK/PI3K/AKT/mTOR signaling in human U87 cells assessed as up regulation of DGKE gene expression at cytotoxic IC50 measured after 48 hrs relative to control"}, "[13]": {"assay": "Inhibition of RTK/PI3K/AKT/mTOR signaling in human U87 cells assessed as down regulation of MAP4K4 gene expression at cytotoxic IC50 measured after 48 hrs relative to control"}, "[14]": {"assay": "Inhibition of RTK/PI3K/AKT/mTOR signaling in human U87 cells assessed as down regulation of HNRNPAB gene expression at cytotoxic IC50 measured after 48 hrs relative to control"}, "[15]": {"assay": "Inhibition of RTK/PI3K/AKT/mTOR signaling in human U87 cells assessed as down regulation of MCM6 gene expression at cytotoxic IC50 measured after 48 hrs relative to control"}, "[16]": {"assay": "Inhibition of RTK/PI3K/AKT/mTOR signaling in human U87 cells assessed as up regulation of KRT7 gene expression at cytotoxic IC50 measured after 48 hrs relative to control"}, "[17]": {"assay": "Inhibition of RTK/PI3K/AKT/mTOR signaling in human U87 cells assessed as down regulation of PAPOLG gene expression at cytotoxic IC50 measured after 48 hrs relative to control"}, "[18]": {"assay": "Inhibition of RTK/PI3K/AKT/mTOR signaling in human U87 cells assessed as up regulation of butyrophilin subfamily 3 member A2 gene expression at cytotoxic IC50 measured after 48 hrs relative to control"}, "[19]": {"assay": "Inhibition of RTK/PI3K/AKT/mTOR signaling in human U87 cells assessed as down regulation of CPD gene expression at cytotoxic IC50 measured after 48 hrs relative to control"}, "[20]": {"assay": "Inhibition of RTK/PI3K/AKT/mTOR signaling in human U87 cells assessed as up regulation of unc-5 netrin receptor B gene expression at cytotoxic IC50 measured after 48 hrs relative to control"}, "[21]": {"assay": "Inhibition of RTK/PI3K/AKT/mTOR signaling in human U87 cells assessed as down regulation of PANK3 gene expression at cytotoxic IC50 measured after 48 hrs relative to control"}, "[22]": {"assay": "Inhibition of RTK/PI3K/AKT/mTOR signaling in human U87 cells assessed as down regulation of PLRG1 gene expression at cytotoxic IC50 measured after 48 hrs relative to control"}, "[23]": {"assay": "Inhibition of RTK/PI3K/AKT/mTOR signaling in human U87 cells assessed as up regulation of hexose-6-phosphate dehydrogenase/glucose 1-dehydrogenase gene expression at cytotoxic IC50 measured after 48 hrs relative to control"}, "[24]": {"assay": "Inhibition of RTK/PI3K/AKT/mTOR signaling in human U87 cells assessed as down regulation of STX1A gene expression at cytotoxic IC50 measured after 48 hrs relative to control"}, "[25]": {"assay": "Inhibition of RTK/PI3K/AKT/mTOR signaling in human U87 cells assessed as down regulation of ABHD12 gene expression at cytotoxic IC50 measured after 48 hrs relative to control"}, "[26]": {"assay": "Inhibition of RTK/PI3K/AKT/mTOR signaling in human U87 cells assessed as down regulation of KREMEN1 gene expression at cytotoxic IC50 measured after 48 hrs relative to control"}, "[27]": {"assay": "Inhibition of RTK/PI3K/AKT/mTOR signaling in human U87 cells assessed as down regulation of HGH1 gene expression at cytotoxic IC50 measured after 48 hrs relative to control"}, "[28]": {"assay": "Inhibition of RTK/PI3K/AKT/mTOR signaling in human U87 cells assessed as up regulation of family with sequence similarity 60 member A gene expression at cytotoxic IC50 measured after 48 hrs relative to control"}, "[29]": {"assay": "Inhibition of RTK/PI3K/AKT/mTOR signaling in human U87 cells assessed as down regulation of ELOC gene expression at cytotoxic IC50 measured after 48 hrs relative to control"}, "[30]": {"assay": "Inhibition of RTK/PI3K/AKT/mTOR signaling in human U87 cells assessed as down regulation of EXOSC6 gene expression at cytotoxic IC50 measured after 48 hrs relative to control"}, "[31]": {"assay": "Inhibition of RTK/PI3K/AKT/mTOR signaling in human U87 cells assessed as up regulation of chromosome 19 open reading frame 54 gene expression at cytotoxic IC50 measured after 48 hrs relative to control"}, "[32]": {"assay": "Inhibition of RTK/PI3K/AKT/mTOR signaling in human U87 cells assessed as down regulation of membrane associated ring-CH-type finger 3 gene expression at cytotoxic IC50 measured after 48 hrs relative to control"}}, "note": "Further values from the same series stand in other lists.", "data": [{"smiles": "CC(=O)C(=NNc1ccccc1C#N)C(C)=O", "values": [{"measurement": "log2FC", "setting": "[1]", "value": -0.578}, {"measurement": "log2FC", "setting": "[2]", "value": -0.821}, {"measurement": "log2FC", "setting": "[3]", "value": -0.538}, {"measurement": "log2FC", "setting": "[4]", "value": 0.843}, {"measurement": "log2FC", "setting": "[5]", "value": 0.575}, {"measurement": "log2FC", "setting": "[6]", "value": 0.956}, {"measurement": "log2FC", "setting": "[7]", "value": -1.31}, {"measurement": "log2FC", "setting": "[8]", "value": -0.847}, {"measurement": "log2FC", "setting": "[9]", "value": 0.895}, {"measurement": "log2FC", "setting": "[10]", "value": 0.581}, {"measurement": "log2FC", "setting": "[11]", "value": -1.23}, {"measurement": "log2FC", "setting": "[12]", "value": 2.56}, {"measurement": "log2FC", "setting": "[13]", "value": -0.598}, {"measurement": "log2FC", "setting": "[14]", "value": -0.435}, {"measurement": "log2FC", "setting": "[15]", "value": -1.18}, {"measurement": "log2FC", "setting": "[16]", "value": 2.99}, {"measurement": "log2FC", "setting": "[17]", "value": -0.701}, {"measurement": "log2FC", "setting": "[18]", "value": 0.975}, {"measurement": "log2FC", "setting": "[19]", "value": -0.623}, {"measurement": "log2FC", "setting": "[20]", "value": 1.38}, {"measurement": "log2FC", "setting": "[21]", "value": -0.492}, {"measurement": "log2FC", "setting": "[22]", "value": -0.559}, {"measurement": "log2FC", "setting": "[23]", "value": 0.666}, {"measurement": "log2FC", "setting": "[24]", "value": -0.971}, {"measurement": "log2FC", "setting": "[25]", "value": -0.624}, {"measurement": "log2FC", "setting": "[26]", "value": -0.604}, {"measurement": "log2FC", "setting": "[27]", "value": -0.973}, {"measurement": "log2FC", "setting": "[28]", "value": 0.908}, {"measurement": "log2FC", "setting": "[29]", "value": -0.466}, {"measurement": "log2FC", "setting": "[30]", "value": -0.96}, {"measurement": "log2FC", "setting": "[31]", "value": 1.15}, {"measurement": "log2FC", "setting": "[32]", "value": -3.54}]}]}
